For data set [1], the system named is P-glycoprotein (P-gp, MDR1). Description: in vitro. To be noted: dog. Here is the method:
(§1) In vitro passive permeability or the ability to serve as a P-glycoprotein (P-gp) transport substrate was tested using MDCK cells (MDCK wild type) or MDCK cells stably transduced with MDRI (MDCK-MDRI), respectively. The permeability experiment was performed in duplicate in a transwell system at a single concentration (5 μM). The cells were incubated for […] Apical-to-basolateral (A to B, A-B) transport and basolateral-to-apical (B to A, B-A) transport of the corresponding compound were determined, and the permeation rate (apparent permeability) (Papp×10^−6 cm/sec) and efflux ratio (Papp (B−A)/Papp (A−B)) of the test compound were calculated.

Data set [2] can be described thus: In vitro permeability experiment, MDCK wild type cells. The following applies: dog. How it is done: as §1

As for `CC(C)NCC(O)COc1ccc(CC(N)=O)cc1` (centres unmarked) [Atenolol, atenolol], the Papp A→B was 0.93 ×10⁻⁶ cm/s in data set [1] (MDCK-MDR1, Papp A-B Sample - 01) and 0.91 ×10⁻⁶ cm/s in data set [1] (MDCK-MDR1, Papp A-B Sample - 02). Moreover, the basolateral-to-apical permeability (Papp B→A) came to 0.91 ×10⁻⁶ cm/s in data set [1] (MDCK-MDR1, Papp B-A Mean); 0.91 ×10⁻⁶ cm/s in data set [1] (MDCK-MDR1, Papp B-A Sample - 01); 0.92 ×10⁻⁶ cm/s in data set [1] (MDCK-MDR1, Papp B-A Sample - 02). The apical-to-basolateral permeability (Papp A→B) at 90 min, 5 µM in data set [2] (Papp A-B Mean, MDCK-Wild type, mean) came to 0.51 ×10⁻⁶ cm/s; in data set [2] (Papp A-B Sample - 01, MDCK-Wild type, replicate 01) it was 0.52 ×10⁻⁶ cm/s; in data set [2] (Papp A-B Sample - 02, MDCK-Wild type, replicate 02), 0.49 ×10⁻⁶ cm/s. The Papp B→A at 90 min, 5 µM was determined as 1.01 ×10⁻⁶ cm/s in data set [2] (Papp B-A Mean, MDCK-Wild type, mean); 1.02 ×10⁻⁶ cm/s in data set [2] (Papp B-A Sample - 01, MDCK-Wild type, replicate 01); 1.01 ×10⁻⁶ cm/s in data set [2] (Papp B-A Sample - 02, MDCK-Wild type, replicate 02).

Values taken from US20260001879A1, “COMPOUNDS AS MYT1 INHIBITORS” (WIGEN BIOMMEDICINE TECHNOLOGY (SHANGHAI) CO., LTD., priority 2022, published 2026).
